The source of these data is paper PMC5674896.

Chains of the proteins cited; added tags and fusions are not shown.
UniProt O43516: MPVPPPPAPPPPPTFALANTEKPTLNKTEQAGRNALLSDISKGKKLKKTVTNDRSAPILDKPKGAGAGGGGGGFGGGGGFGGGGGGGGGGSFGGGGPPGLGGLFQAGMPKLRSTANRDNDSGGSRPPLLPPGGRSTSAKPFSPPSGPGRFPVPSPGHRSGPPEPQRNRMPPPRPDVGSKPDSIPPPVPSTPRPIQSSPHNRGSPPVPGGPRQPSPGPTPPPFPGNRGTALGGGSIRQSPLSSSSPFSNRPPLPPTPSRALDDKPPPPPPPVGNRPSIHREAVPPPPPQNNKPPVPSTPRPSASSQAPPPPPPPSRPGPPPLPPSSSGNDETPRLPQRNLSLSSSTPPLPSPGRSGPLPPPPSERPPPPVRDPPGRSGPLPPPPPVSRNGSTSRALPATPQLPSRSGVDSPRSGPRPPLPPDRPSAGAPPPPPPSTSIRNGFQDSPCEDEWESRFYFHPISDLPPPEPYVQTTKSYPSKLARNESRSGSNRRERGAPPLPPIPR
UniProt Q6NX29: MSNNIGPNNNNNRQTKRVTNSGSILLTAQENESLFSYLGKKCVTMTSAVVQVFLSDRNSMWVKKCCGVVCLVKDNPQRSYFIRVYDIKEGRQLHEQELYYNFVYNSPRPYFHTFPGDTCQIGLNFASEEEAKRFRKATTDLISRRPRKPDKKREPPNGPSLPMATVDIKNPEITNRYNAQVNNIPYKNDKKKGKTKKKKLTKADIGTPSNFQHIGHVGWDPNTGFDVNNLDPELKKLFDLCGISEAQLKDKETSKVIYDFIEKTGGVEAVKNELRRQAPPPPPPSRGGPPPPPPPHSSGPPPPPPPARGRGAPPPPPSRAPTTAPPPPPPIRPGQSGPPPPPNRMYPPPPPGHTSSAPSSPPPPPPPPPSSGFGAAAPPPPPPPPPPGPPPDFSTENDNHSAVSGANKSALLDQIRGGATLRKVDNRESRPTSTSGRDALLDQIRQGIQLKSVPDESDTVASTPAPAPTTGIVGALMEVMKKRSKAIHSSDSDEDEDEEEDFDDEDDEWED

Results are given in words; binding and its absence hold for the method and conditions named. Binding seen in cells or lysates may run through a third protein. Some binding calls cover weakened binding; strength is not graded here.

This assay deals with ZZ-tagged human WIP (human) (UniProt O43516). As to the kind of experiment: pull-down; co-purification: 293F lysates incubated with IgG Sepharose 6 beads in XB buffer (100 mM KCl, 0.1 mM CaCl2, 1 mM MgCl2, 10 mM Hepes, pH 7.4) to capture ZZ-WIP; extensive washing; N-WASP–WIP complex released by TEV protease overnight; 4°C.

On to “SNAP-tagged X. tropicalis N-WASP (from UniProt Q6NX29 1-511)”, for which the binding result is “binds”.
